Assay results as given in the supplement of paper PMC7666118.
The list shows a part of the results.

Amino acid sequences for entries named in this document (tags omitted). A change or cut given only in a name is not applied to a line headed by its entry.
UniProt Q9UNP9: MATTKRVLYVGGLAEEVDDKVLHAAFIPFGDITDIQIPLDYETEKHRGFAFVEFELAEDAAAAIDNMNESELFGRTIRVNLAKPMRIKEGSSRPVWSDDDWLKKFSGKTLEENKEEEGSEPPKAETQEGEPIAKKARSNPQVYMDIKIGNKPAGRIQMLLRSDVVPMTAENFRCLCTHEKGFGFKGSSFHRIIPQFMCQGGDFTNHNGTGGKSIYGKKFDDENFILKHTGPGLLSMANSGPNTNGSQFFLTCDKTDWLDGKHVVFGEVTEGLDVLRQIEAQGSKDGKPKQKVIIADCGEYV
UniProt Q9H1D9: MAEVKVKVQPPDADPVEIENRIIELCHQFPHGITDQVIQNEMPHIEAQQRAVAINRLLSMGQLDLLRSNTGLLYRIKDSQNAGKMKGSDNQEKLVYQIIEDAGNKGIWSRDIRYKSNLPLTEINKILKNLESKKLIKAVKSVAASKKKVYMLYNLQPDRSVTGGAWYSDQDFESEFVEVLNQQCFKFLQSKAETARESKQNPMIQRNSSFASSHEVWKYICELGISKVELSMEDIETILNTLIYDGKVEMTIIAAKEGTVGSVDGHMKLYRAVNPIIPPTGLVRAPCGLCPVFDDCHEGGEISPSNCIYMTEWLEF
UniProt P54277: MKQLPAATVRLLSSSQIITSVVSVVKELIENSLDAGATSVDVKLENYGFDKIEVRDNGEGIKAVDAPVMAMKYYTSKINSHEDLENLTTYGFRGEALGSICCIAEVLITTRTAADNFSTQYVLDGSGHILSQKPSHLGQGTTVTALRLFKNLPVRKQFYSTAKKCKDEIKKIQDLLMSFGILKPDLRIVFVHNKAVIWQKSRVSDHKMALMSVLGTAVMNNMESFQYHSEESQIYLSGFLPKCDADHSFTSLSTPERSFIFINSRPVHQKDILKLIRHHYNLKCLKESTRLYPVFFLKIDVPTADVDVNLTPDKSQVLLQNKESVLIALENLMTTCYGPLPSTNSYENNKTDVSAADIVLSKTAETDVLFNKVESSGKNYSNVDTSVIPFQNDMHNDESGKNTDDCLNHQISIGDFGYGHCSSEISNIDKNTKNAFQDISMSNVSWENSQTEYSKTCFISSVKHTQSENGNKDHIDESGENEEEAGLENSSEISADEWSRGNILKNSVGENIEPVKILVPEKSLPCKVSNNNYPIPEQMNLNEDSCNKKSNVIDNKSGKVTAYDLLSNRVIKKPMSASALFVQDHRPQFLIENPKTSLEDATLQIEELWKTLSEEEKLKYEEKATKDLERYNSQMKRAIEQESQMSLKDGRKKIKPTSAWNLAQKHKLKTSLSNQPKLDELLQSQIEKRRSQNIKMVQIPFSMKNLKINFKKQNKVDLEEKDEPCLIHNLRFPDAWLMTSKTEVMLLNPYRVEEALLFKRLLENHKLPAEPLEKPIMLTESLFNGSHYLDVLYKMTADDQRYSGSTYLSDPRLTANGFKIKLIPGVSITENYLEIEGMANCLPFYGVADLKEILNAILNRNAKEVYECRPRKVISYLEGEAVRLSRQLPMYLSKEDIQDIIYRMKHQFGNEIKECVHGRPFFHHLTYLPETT
UniProt Q8ND30: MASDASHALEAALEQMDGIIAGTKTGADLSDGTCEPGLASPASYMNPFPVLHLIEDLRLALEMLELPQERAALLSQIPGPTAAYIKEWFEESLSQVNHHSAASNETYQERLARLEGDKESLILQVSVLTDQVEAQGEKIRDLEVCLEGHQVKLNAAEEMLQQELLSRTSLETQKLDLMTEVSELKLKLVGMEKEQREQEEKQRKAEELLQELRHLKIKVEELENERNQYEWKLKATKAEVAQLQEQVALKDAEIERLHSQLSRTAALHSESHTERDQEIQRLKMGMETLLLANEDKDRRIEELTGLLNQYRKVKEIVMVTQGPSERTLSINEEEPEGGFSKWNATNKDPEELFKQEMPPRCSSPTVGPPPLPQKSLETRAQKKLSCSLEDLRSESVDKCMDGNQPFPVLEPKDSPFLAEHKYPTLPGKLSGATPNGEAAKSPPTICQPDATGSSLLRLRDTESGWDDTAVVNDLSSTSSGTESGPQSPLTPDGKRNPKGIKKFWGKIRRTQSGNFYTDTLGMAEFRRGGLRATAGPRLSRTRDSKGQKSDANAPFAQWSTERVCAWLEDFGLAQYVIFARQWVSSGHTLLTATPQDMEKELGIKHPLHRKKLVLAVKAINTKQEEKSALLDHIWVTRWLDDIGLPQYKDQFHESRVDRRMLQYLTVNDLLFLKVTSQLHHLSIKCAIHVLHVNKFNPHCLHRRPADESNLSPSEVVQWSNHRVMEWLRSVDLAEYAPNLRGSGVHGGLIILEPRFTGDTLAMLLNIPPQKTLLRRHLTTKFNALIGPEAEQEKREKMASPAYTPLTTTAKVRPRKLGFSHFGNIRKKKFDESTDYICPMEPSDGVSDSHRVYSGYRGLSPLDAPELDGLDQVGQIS
UniProt P63098, whole entry, looked up: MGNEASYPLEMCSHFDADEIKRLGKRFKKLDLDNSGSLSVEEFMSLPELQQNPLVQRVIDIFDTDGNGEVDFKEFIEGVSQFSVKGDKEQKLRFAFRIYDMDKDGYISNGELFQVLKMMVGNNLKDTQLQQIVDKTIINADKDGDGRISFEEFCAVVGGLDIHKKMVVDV
UniProt Q8WV60: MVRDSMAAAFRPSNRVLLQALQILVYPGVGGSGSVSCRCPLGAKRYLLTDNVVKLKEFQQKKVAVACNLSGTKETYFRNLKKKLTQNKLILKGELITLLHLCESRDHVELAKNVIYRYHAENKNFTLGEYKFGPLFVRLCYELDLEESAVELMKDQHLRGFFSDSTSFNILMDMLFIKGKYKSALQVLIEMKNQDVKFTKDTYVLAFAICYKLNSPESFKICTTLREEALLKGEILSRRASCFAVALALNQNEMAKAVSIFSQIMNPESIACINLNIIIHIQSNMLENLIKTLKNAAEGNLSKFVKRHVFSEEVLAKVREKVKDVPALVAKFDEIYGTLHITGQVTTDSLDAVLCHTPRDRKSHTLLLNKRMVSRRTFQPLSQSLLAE
UniProt O00231, whole entry: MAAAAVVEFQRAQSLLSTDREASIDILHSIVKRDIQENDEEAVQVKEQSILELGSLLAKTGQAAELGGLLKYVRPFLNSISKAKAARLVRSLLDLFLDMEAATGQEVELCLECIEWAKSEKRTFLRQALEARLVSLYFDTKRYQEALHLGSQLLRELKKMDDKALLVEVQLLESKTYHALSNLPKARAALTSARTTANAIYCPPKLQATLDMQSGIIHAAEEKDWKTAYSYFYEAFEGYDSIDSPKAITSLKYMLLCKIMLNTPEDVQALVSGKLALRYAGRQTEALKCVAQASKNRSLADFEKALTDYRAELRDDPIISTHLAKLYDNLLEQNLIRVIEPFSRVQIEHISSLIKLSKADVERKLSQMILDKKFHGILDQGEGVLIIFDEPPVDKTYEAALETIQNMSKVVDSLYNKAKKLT
UniProt Q9H2H8: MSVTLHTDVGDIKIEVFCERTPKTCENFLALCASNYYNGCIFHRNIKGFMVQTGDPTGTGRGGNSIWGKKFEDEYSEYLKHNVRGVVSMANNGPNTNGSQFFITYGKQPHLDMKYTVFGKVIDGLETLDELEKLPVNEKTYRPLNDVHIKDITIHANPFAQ
UniProt Q9UMR5: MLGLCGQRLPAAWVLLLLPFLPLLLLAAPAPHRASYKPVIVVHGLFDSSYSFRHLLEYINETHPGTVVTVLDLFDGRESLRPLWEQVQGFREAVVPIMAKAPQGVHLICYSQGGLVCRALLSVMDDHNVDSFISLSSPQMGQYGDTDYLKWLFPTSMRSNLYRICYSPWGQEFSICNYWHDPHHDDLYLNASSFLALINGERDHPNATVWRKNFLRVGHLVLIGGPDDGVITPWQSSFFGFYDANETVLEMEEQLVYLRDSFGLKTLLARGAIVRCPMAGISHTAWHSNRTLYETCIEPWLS
UniProt Q14558: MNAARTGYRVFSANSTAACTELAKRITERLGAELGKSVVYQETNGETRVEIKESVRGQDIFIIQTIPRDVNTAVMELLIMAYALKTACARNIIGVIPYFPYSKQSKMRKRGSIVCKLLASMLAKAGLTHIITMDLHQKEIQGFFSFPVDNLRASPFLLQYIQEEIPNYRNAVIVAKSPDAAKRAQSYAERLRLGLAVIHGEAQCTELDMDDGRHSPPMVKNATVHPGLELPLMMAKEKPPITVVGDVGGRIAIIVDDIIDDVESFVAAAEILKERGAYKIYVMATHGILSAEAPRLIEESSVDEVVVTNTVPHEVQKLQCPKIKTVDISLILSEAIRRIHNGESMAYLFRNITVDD
UniProt Q13136: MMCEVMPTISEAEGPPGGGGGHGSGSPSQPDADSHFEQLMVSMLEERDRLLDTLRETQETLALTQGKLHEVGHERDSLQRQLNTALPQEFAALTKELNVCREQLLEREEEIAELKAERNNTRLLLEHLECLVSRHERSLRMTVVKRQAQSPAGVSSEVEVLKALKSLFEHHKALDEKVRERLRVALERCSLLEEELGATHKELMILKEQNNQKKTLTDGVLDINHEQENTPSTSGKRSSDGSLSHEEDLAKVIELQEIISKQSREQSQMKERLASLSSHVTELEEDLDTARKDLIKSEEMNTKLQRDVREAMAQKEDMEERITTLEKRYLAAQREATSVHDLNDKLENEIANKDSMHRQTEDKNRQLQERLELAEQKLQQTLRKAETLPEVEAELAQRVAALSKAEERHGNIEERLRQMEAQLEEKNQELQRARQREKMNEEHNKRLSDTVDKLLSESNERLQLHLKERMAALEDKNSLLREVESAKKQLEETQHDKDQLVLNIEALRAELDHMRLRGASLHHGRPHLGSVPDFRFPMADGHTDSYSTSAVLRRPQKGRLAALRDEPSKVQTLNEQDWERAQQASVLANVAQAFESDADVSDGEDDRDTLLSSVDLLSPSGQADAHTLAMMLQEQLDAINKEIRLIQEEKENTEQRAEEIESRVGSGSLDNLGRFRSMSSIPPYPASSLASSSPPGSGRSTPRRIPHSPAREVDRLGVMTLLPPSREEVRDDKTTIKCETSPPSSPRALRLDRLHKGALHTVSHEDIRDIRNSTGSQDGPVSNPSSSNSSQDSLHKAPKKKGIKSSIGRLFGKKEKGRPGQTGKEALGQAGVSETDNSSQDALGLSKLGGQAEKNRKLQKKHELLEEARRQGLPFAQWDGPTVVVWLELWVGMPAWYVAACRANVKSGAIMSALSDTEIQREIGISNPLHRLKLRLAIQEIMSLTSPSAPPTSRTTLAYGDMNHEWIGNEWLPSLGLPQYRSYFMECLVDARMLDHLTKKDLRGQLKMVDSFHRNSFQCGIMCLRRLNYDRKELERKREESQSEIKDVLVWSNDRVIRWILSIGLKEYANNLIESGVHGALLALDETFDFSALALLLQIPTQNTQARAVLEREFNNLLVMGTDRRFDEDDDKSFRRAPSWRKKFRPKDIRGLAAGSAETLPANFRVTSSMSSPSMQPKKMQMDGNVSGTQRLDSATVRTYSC
UniProt Q5JS54: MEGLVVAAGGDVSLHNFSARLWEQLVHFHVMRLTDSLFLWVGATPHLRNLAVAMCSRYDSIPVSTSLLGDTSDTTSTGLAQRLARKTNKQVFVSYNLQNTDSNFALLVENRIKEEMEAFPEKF
UniProt P55036: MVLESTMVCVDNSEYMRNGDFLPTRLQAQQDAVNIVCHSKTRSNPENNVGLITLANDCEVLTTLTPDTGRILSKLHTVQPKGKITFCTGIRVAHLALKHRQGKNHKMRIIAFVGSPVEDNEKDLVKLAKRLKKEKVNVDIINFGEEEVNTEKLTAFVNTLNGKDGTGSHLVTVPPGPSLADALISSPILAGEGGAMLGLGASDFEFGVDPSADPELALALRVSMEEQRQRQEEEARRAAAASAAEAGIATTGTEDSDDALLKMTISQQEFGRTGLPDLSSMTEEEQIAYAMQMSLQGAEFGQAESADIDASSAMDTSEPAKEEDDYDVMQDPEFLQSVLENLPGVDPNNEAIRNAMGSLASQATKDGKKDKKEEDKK
UniProt P35998: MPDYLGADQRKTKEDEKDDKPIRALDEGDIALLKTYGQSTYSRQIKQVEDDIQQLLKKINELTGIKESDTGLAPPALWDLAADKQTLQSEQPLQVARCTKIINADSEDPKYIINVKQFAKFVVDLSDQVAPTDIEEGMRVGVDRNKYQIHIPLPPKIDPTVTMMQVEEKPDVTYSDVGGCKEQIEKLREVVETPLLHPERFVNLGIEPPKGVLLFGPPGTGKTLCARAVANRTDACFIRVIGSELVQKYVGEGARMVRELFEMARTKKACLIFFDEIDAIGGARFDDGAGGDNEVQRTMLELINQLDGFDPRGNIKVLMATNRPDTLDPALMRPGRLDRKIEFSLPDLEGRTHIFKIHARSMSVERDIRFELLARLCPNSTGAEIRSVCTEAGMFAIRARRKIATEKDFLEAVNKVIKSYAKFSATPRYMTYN
UniProt O00233: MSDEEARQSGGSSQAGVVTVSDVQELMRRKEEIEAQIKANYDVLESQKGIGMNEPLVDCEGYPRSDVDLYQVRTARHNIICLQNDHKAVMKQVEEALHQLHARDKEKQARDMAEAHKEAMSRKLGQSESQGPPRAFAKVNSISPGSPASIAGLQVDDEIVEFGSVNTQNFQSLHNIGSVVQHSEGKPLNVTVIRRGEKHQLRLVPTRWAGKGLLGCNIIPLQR

These targets were tested with COc1ccc(Cn2ccc3cc(C)c(C(=O)NO)cc32)cc1 (assay: dose-dependent thermal stabilisation call (2D-TPP, DLPTP, 10% FDR) (binary (1 = stabilised)); higher = stabilised by the compound). Settings: system: HL-60 intact cells; concentration range 0.04-10 µM.
Method: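 2D thermal proteome profiling in intact HL-60 cells treated with BRD-3811 (0, 0.04, 0.29, 2, 10 uM) for 90 min at 37 C, then heated 3 min at one of 12 temperatures (42-63.9 C). Soluble protein was quantified by TMT10 MS. The value is the DLPTP call of the paper: dose-dependent thermal stabilisation over all temperatures at 10% FDR (F-test of a dose-response against a flat model); one experiment, one call per tested protein.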

How did the “dose-dependent thermal stabilisation call” value turn out when PRPF18 (UniProt Q99633) was run?
Its value is inactive: 0.

Which “dose-dependent thermal stabilisation call” value does the source give for PTPRA (UniProt P18433) here?
Its value is inactive: 0.

With PPIE (UniProt Q9UNP9) as the target, how does the “dose-dependent thermal stabilisation call” value read?
The value was inactive: 0.

Which “dose-dependent thermal stabilisation call” value does the source give for POLR3F (UniProt Q9H1D9) here?
The value was inactive: 0.

For PPIL1 (UniProt Q9Y3C6), which “dose-dependent thermal stabilisation call” value is on record?
Its value is inactive: 0.

For PMS1 (UniProt P54277), which “dose-dependent thermal stabilisation call” value is on record?
Its value is inactive: 0.

Which “dose-dependent thermal stabilisation call” value does the source give for PTPLAD1 (UniProt Q9P035) here?
Its value is inactive: 0.

How did the “dose-dependent thermal stabilisation call” value turn out when PPA2 (UniProt Q9H2U2) was run?
The value was inactive: 0.

How did the “dose-dependent thermal stabilisation call” value turn out when PPFIBP2 (UniProt Q8ND30) was run?
The value was inactive: 0.

For PPP3R1 (UniProt P63098), which “dose-dependent thermal stabilisation call” value is on record?
Its value is inactive: 0.

With PTCD2 (UniProt Q8WV60) as the target, how does the “dose-dependent thermal stabilisation call” value read?
Its value is inactive: 0.

Which “dose-dependent thermal stabilisation call” value does the source give for POFUT1 (UniProt Q9H488) here?
The value was inactive: 0.

With PSMA3 (UniProt P25788) as the target, how does the “dose-dependent thermal stabilisation call” value read?
Its value is inactive: 0.

With PSMD11 (UniProt O00231) as the target, how does the “dose-dependent thermal stabilisation call” value read?
The value was inactive: 0.

With PSMB6 (UniProt P28072) as the target, how does the “dose-dependent thermal stabilisation call” value read?
Its value is inactive: 0.

Which “dose-dependent thermal stabilisation call” value does the source give for PPIL2 (UniProt Q13356) here?
Its value is inactive: 0.

With POFUT2 (UniProt Q9Y2G5) as the target, how does the “dose-dependent thermal stabilisation call” value read?
Its value is inactive: 0.

With PMVK (UniProt Q15126) as the target, how does the “dose-dependent thermal stabilisation call” value read?
Its value is inactive: 0.

POLR2H (UniProt P52434) was tested. Which “dose-dependent thermal stabilisation call” value did it give?
Its value is inactive: 0.

How did the “dose-dependent thermal stabilisation call” value turn out when PPIL3 (UniProt Q9H2H8) was run?
The value was inactive: 0.

How did the “dose-dependent thermal stabilisation call” value turn out when PRKACB (UniProt P22694) was run?
The value was inactive: 0.

For POLA2 (UniProt Q14181), which “dose-dependent thermal stabilisation call” value is on record?
Its value is inactive: 0.

Which “dose-dependent thermal stabilisation call” value does the source give for PRAF2 (UniProt O60831) here?
The value was inactive: 0.

How did the “dose-dependent thermal stabilisation call” value turn out when POLA1 (UniProt P09884) was run?
The value was inactive: 0.

Which “dose-dependent thermal stabilisation call” value does the source give for PPT2 (UniProt Q9UMR5) here?
Its value is inactive: 0.

With PSMC1 (UniProt P62191) as the target, how does the “dose-dependent thermal stabilisation call” value read?
The value was inactive: 0.

PRPSAP1 (UniProt Q14558) was tested. Which “dose-dependent thermal stabilisation call” value did it give?
The value was inactive: 0.

For PRKAR1B (UniProt P31321), which “dose-dependent thermal stabilisation call” value is on record?
Its value is inactive: 0.

Which “dose-dependent thermal stabilisation call” value does the source give for PPFIA1 (UniProt Q13136) here?
Its value is inactive: 0.

With PRMT7 (UniProt Q9NVM4) as the target, how does the “dose-dependent thermal stabilisation call” value read?
The value was inactive: 0.

POLRMT (UniProt O00411) was tested. Which “dose-dependent thermal stabilisation call” value did it give?
Its value is inactive: 0.

How did the “dose-dependent thermal stabilisation call” value turn out when PSMG4 (UniProt Q5JS54) was run?
Its value is inactive: 0.

PSMD4 (UniProt P55036) was tested. Which “dose-dependent thermal stabilisation call” value did it give?
The value was inactive: 0.

With PNN (UniProt Q9H307) as the target, how does the “dose-dependent thermal stabilisation call” value read?
The value was inactive: 0.

How did the “dose-dependent thermal stabilisation call” value turn out when PSMC2 (UniProt P35998) was run?
The value was inactive: 0.

For POLR2D (UniProt O15514), which “dose-dependent thermal stabilisation call” value is on record?
The value was inactive: 0.

PSMD9 (UniProt O00233) was tested. Which “dose-dependent thermal stabilisation call” value did it give?
Its value is inactive: 0.

How did the “dose-dependent thermal stabilisation call” value turn out when POLR1D was run?
Its value is inactive: 0.

Which “dose-dependent thermal stabilisation call” value does the source give for POLB (UniProt P06746) here?
Its value is inactive: 0.

PPP4R2 (UniProt Q9NY27) was tested. Which “dose-dependent thermal stabilisation call” value did it give?
The value was inactive: 0.
